Data reported in the supplement of paper PMC5949888.
Most values lie at the floor of the assay. Slopes are relative: functional sequences can read slightly below zero.

What follows are substances tested on Saccharomyces cerevisiae PS128 hsf1 delta, HSF1(1-493) fusion (assay: growth estimate (transactivation domain function in HSF1 fusion, heat-shock survival) (a.u. (slope of normalised read count over time)); higher = stronger growth at 37°C, i.e. more transactivation activity). Conditions: library: random library.

Row | Substance | growth estimate
1 | ALIQGIVSGGMRKILFDVMR | < -0.25
2 | RNYNWGYKWTFHSCFSRCVS | < -0.25
3 | QASGLNRANKLQGHRHRAGL | -0.155
4 | KGEYIAQVKWQLMS | < -0.25
5 | YARGLDERP | < -0.25
6 | PVCQLRLICQLCVSPQRPEF | < -0.25
7 | VARVICSGEQFRV | < -0.25
8 | IVQHYLSDYKGKLILVFVAL | < -0.25
9 | RVPISVATNGEIRGLLRLVR | -0.246
10 | QVHALQAISPDGALDPGPPV | < -0.25
11 | LFAVGRNDRYTWSFMGLYVC | < -0.25
12 | CKPRIPPASVILTVCQLGCV | < -0.25
13 | LSIRWSRTYLTKCT | < -0.25
14 | VVSGVGQVSKGRVGSEGGLL | < -0.25
15 | IPPTDVSPALHE | < -0.25
16 | EGPRQNSGASLRIGWNTTVT | < -0.25
17 | GPNLRQR | < -0.25
18 | DRRWIIAKCVSPQYPDVPFS | < -0.25
19 | RFTTASALAGSRDSQRTLSS | < -0.25
20 | CTTGTLG | < -0.25
21 | LTRARME | < -0.25
22 | TLAAVSLGRLVESFSRQAGP | < -0.25
23 | QEMHS | < -0.25

Row | Substance | growth estimate
24 | ARKKVGKGAT | < -0.25
25 | TKCNSNMRLRGYHTPVTKHT | < -0.25
26 | PSGSAALRSCDHGSPRIPLA | < -0.25
27 | TKRSFRRI | < -0.25
28 | WIADSQMGAFRVNYFHRHSN | < -0.25
29 | RWLS | < -0.25
30 | PNTVDVLMNPRHPA | < -0.25
31 | HRADSLPSQCTKCYCGFLRH | < -0.25
32 | LTIAAIYVTTIKNYDINVPL | < -0.25
33 | QRGCRQYVQV | < -0.25
34 | LYEIRFRNEAEQVRAARPQR | < -0.25
35 | SDKARTLL | < -0.25
36 | MMTLIRRILIPVRPNPLYLR | < -0.25
37 | HKNGLVTDQLQPA | < -0.25
38 | DKCIQQLCRLPR | < -0.25
39 | WIGWQFPGDRTISNICGLKI | < -0.25
40 | SARSQECNSAGSRVYPRCTL | < -0.25
41 | GESYSGLSASGAARQDVSYP | < -0.25
42 | GFLGYCYTAGVGLARFVSMQ | < -0.25
43 | YGLRLTILCRQLGVSGPVDG | < -0.25
44 | SYWQ | < -0.25
45 | NSNALTVSFAGKDFAGIATH | < -0.25
46 | HPLRSTSERFKAAIRHGTES | < -0.25

Row | Substance | growth estimate
47 | QHDVKNNQIRN | < -0.25
48 | PGHI | < -0.25
49 | VMIGGARRMGL | < -0.25
50 | RTNARPRSAA | < -0.25
51 | IAGIAWRAWHFVLIERFLLQ | < -0.25
52 | LPGWKPPPILRTALPHISRG | < -0.25
53 | LRLGPARVQRVTHIKT | < -0.25
54 | WNPGSVYMGRQKNAKGKFLC | < -0.25
55 | SKIAE | < -0.25
56 | SQKGSSHHESIFSSEVQAVG | < -0.25
57 | RFYTIATTVNEDYGRH | < -0.25
58 | GLFDYHEMRITAS | < -0.25
59 | KSLEFLVNVYYFTPRIRHGG | < -0.25
60 | GFRR | < -0.25
61 | AEQSRR | -0.243
62 | TPVHGVRPEGTLRRDSYCDR | < -0.25
63 | ALAGGQV | < -0.25
64 | RWIEEICLEGARGRLWIQPF | < -0.25
65 | FPRDGNIGK | < -0.25
66 | VLPWSSPGNLVSAIDRSLRY | < -0.25
67 | KLF | < -0.25
68 | MLYVYMSILSEESTNVRGTR | < -0.25
69 | QARGGKSVNSSLY | < -0.25

Row | Substance | growth estimate
70 | TRSDASAEV | < -0.25
71 | RRYAQRELAGSFDGQWS | < -0.25
72 | VAWV | < -0.25
73 | IGDSIVHGG | < -0.25
74 | HVGYELTRKWLSWSRRHT | < -0.25
75 | SRLLLSAGNLGNRSSIQPLE | < -0.25
76 | YSETLAGGGWMSSFRAKLPK | < -0.25
77 | HEGVQLLGTLAVANGANIPF | < -0.25
78 | RTRRGVRARFFWKR | -0.231
79 | SGVAALIRVGDEHARSAAAG | < -0.25
80 | LVTVKHVSGTESTLHCDIGQ | < -0.25
81 | SIGKRPTSGRLYRGGHPQAH | < -0.25
82 | PTSCHLYTWGVSRAPRVGTW | < -0.25
83 | CIRGGKEPMEWYEDILVAHR | < -0.25
84 | HHRTLRRVSYRVTGISGTDE | < -0.25
85 | RPRDIGGS | -0.241
86 | HTSLEKRTYRSVT | < -0.25
87 | IYRR | < -0.25
88 | SPLPGCLRNAPGNR | < -0.25
89 | ELCHQADRDGVHGDVISHVC | < -0.25
90 | SFLKPVTHTKRKLFI | < -0.25
91 | VHSRYLSEGYGHGHSQHMIA | < -0.25
92 | LEKAYAVTVKAPSW | < -0.25

Exported as tab-separated lines: part of the list above
Row	Substance	growth estimate
70	TRSDASAEV	< -0.25
76	YSETLAGGGWMSSFRAKLPK	< -0.25
81	SIGKRPTSGRLYRGGHPQAH	< -0.25
86	HTSLEKRTYRSVT	< -0.25
92	LEKAYAVTVKAPSW	< -0.25

Rewritten with tabs: entries from further up
Row	Substance	growth estimate
71	RRYAQRELAGSFDGQWS	< -0.25
72	VAWV	< -0.25
73	IGDSIVHGG	< -0.25

An excerpt of these results, as tab-separated lines:
Row	Substance	growth estimate
87	IYRR	< -0.25
88	SPLPGCLRNAPGNR	< -0.25
89	ELCHQADRDGVHGDVISHVC	< -0.25

Carrying on.

Row | Substance | growth estimate
93 | LSWSFYGNR | < -0.25
94 | KVYHRMITSFLC | < -0.25
95 | LVTGSRN | < -0.25
96 | SPVHFRRK | < -0.25
97 | HGLSRDRRNHLRLLFFPIHV | < -0.25
98 | TATETRVYEWAN | -0.229
99 | HGLFCVWGITMVI | < -0.25
100 | LPC | < -0.25
101 | NEIH | < -0.25
102 | IDKDKGHYMGVSHAFSRDKS | < -0.25
103 | VHLRGVRSLSAGGSVA | < -0.25
104 | RDIIRDEHWVRLSRIDHLPS | < -0.25
105 | RAAPKVEVFGFSTTITSLRV | < -0.25
106 | GSTRSKLMGGLTRTPVMPTC | < -0.25
107 | ELTGVVRFANGR | < -0.25
108 | LCDQRAGGFRECCF | -0.246
109 | HKAQFI | < -0.25
110 | AYMLGEVSYFAGWDQGLVLC | < -0.25
111 | QKR | < -0.25
112 | PGHRTRSLTKRLRASGESSE | < -0.25
113 | YNHLMHTPAPRVPVDGSPKG | < -0.25
114 | SPLSGS | < -0.25
115 | SLLFFTDLGGM | -0.114

Row | Substance | growth estimate
116 | VQG | < -0.25
117 | LCRCVVCCTFTRALSTSSQM | < -0.25
118 | VVSIYKRPGVIARMSYYDL | < -0.25
119 | SSILSCIGDPGRL | < -0.25
120 | SSKTFISRR | < -0.25
121 | PGET | < -0.25
122 | HCLLSVQTCPMKKTRSGTLG | -0.229
123 | TCYQRPDRMAVDLVQEYVVV | < -0.25
124 | CDFRHRR | < -0.25
125 | GGTGCLHLGIVLCRVPSLVA | < -0.25
126 | FTCPVRKLASRGQRELMFSE | < -0.25
127 | VGERPRSSQAKVCLCDSLPT | < -0.25
128 | LRLQPHSRL | < -0.25
129 | SHVGLWKYPATTVF | < -0.25
130 | SPYAFRTRCVVKRSRCRRAE | < -0.25
131 | GPSLGRECGVILSITQSIIC | < -0.25
132 | RCIAPGKNHCHERAG | < -0.25
133 | TVSPLWAVGHPMGHGLLLPY | < -0.25
134 | SLSVVVSPLDSLPDDFPGLG | -0.0568
135 | HSAR | < -0.25
136 | AASWESLMCFAHLTRRKASR | < -0.25
137 | LTSLTWSAGILCKSG | < -0.25
138 | AKELKPSSFLTYWNGGKFRR | < -0.25

Row | Substance | growth estimate
139 | DFTANAGGRNSQSEPAEGAL | -0.243
140 | VDGHSVARDNYSVRRGQV | < -0.25
141 | SGSGIRFRVHGTII | < -0.25
142 | MLPKELQPVTTWP | < -0.25
143 | LPGCLRGLVLFRPYSCRVLA | < -0.25
144 | VLLVRGLRSRHGRFLVCVTA | < -0.25
145 | ECAFLVHPKSIGVALQVCSS | < -0.25
146 | STEISPPGHSQLRGS | < -0.25
147 | RVDI | < -0.25
148 | VKVEYTS | < -0.25
149 | TYYTII | < -0.25
150 | YGVLSKWARNLVVELGTLLR | < -0.25
151 | VWEKSIAYCRWKLIRRATRR | < -0.25
152 | PLHGL | < -0.25
153 | HDLAWLRLNGIFERYVWDQC | -0.0335
154 | TRAAILVTLLLLFR | < -0.25
155 | GLLQQPSKTLG | < -0.25
156 | IHRRGM | < -0.25
157 | SGHL | < -0.25
